Record: PubChem BioAssay AID1259276 (Sanger Institute, 2017)

Test: 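Kinome-wide search for kinases colon cancer cells need, and for drug partners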 (primary screen)
Cells: human C2BBe1 colorectal cancer cells
Reagents: siRNA pool against human genes
Treatment: DMSO vehicle, or one anchor drug: BYL719 at 1 µM, cetuximab at 5 µg/ml, or trametinib at 10 nM; exposure length not stated
Detection: 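Cell viability as a fraction of non-targeting control wells, mean of replicates, also as a control-based robust z-score, plus a synergy score for each anchor drug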
Reading the numbers: viability robust z-score, siRNA alone and viability vs control, siRNA alone: higher = more viable cells after knock-down; synergy score with BYL719: higher = stronger combined killing with BYL719; synergy score with cetuximab: higher = stronger combined killing with cetuximab; synergy score with trametinib: higher = stronger combined killing with trametinib
Call rule: 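a siRNA pool tested without drug is essential if its viability robust z-score falls under -3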
Meaning of the calls: active = essential (siRNA alone); inactive = no change (siRNA alone)
The whole screen tested 794 reagents; below is a random part of them. Of all reagents, 24 (3%) are marked active. 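Calls come only from the siRNA-alone arm; drug synergy scores do not affect them.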 Unmarked entries are inactive. Viability is capped at 1. The record does not give: the amount of reagent, the time to read-out.

gene | viability robust z-score, siRNA alone | viability vs control, siRNA alone | synergy score with BYL719 | synergy score with cetuximab | synergy score with trametinib
ADPGK | 0.472 | 1 | 0.27 | -0.0115 | 0.0907
MARK4 | 0.472 | 1 | 0.191 | -0.0115 | -0.0084
TSKS | -2.02 | 0.843 | -0.184 | -0.167 | -0.176
DGKD | -0.341 | 0.949 | -0.186 | -0.0621 | -0.115
PIK3CD | 0.472 | 1 | 0.111 | -0.0115 | -0.00421
RAD21 | 0.472 | 1 | 0.118 | -0.0115 | 0.0924
MPP2 | 0.472 | 1 | -0.118 | -0.0115 | 0.233
PXK | 0.472 | 1 | 0.0904 | -0.0115 | -0.0667
CDK8 | 0.472 | 1 | -0.11 | 0.059 | -0.0667
TJP2 | 0.472 | 1 | -0.128 | -0.0115 | 0.0703
NUP98 | 0.472 | 1 | 0.136 | -0.0115 | -0.0667
FRK | -2.88 | 0.789 | -0.323 | -0.0949 | -0.264
CHEK1 | 0.472 | 1 | 0.073 | -0.0115 | -0.0667
MELK | 0.472 | 1 | -0.0721 | -0.0115 | -0.0667
PHKA1 | 0.472 | 1 | 0.0342 | 0.149 | -0.0667
TTBK1 | -3.59 (active) | 0.744 | -0.225 | -0.0196 | -0.209
CERK | 0.472 | 1 | 0.152 | -0.0115 | 0.0614
STYK1 | -3.46 (active) | 0.752 | -0.281 | -0.227 | 0.00196
SRC | -0.202 | 0.958 | 0.179 | 0.000841 | 0.152
FLT1 | -1.76 | 0.859 | -0.139 | -0.151 | -0.114
PIK3CB | 0.472 | 1 | 0.197 | -0.0115 | -0.0667
CDK20 | -0.529 | 0.937 | 0.285 | 0.0187 | -0.126
ERN1 | -0.168 | 0.96 | -0.07 | -0.0199 | -0.104
STK10 | -0.396 | 0.945 | -0.0464 | -0.0656 | -0.085
MAP3K6 | 0.472 | 1 | -0.142 | -0.0115 | -0.0667
PRKAR1A | 0.472 | 1 | 0.118 | 0.00673 | -0.0667
RPS6KA2 | -1.88 | 0.851 | 0.159 | -0.0909 | -0.205
CIB2 | 0.472 | 1 | 0.0964 | -0.0115 | 0.1
MPP1 | 0.472 | 1 | -0.142 | -0.0115 | 0.0481
DLG2 | 0.472 | 1 | -0.142 | -0.0115 | -0.0667
STK38 | 0.472 | 1 | -0.0345 | 0.174 | 0.224
IRAK2 | 0.472 | 1 | -0.00405 | -0.0115 | -0.0667
CASP8 | 0.472 | 1 | -0.00471 | 0.0028 | -0.0667
PTK2 | -1.95 | 0.847 | -0.0862 | -0.0857 | -0.0263

Just “viability vs control, siRNA alone” (5 entries from above):
FRK = 0.789
CHEK1 = 1
MELK = 1
PHKA1 = 1
TTBK1 = 0.744 (active)
